The target in assay [1] is human OX40 expressed on cells (293T-OX40, Jurkat-OX40) (human) (UniProt P43489). The assay can be described thus: FACS on 293T-OX40 cells.
The target is the same in assay [2]. Nature of the assay: ELISA on OX40-ECD-hFc and FACS on 293T-OX40 cells. (ELISA stands for enzyme-linked immunosorbent assay.)

Sequences of proteins named here, by UniProt entry; tags and fusion partners are left off. Residues count along the entry.
UniProt P43489, residues 29-277: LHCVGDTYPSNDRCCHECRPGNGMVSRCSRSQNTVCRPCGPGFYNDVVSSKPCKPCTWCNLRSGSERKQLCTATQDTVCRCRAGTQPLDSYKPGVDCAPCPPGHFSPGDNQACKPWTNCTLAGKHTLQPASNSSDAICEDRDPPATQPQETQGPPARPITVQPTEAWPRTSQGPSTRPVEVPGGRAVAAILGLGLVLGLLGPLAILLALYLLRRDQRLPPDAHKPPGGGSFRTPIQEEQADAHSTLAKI

These are yes or no findings as the source states them, for the method shown. Some binding calls cover weakened binding; strength is not graded here.

B1: humanized anti-OX40 antibody hu3G4-DE (antibody, V domains shown)
VH: QVQLVQSGAEVKKPGASVKVSCKASGYRFTSYVLHWVRQAPGQRLEWIGYVNPFNDNTRYNEKFKARATLTSDKSASTAYMELSSLRSEDTAVYYCSRGLYDYSYVMDYWGQGTLVTVSS
VL: DIQMTQSPSSLSASVGDRVTITCQASQDIRNYLNWYQQKPGKAPKLLIYHTSKLHSGVPSRFSGSGSGTDFTFTISSLQPEDIATYYCQQSNTLPYTFGQGTKLEIK
For B1, the binding entry in assay [1] is recorded as “binds”.

B2: murine OX40 hybridoma antibody 3G4 (antibody, V domains shown)
VH: EVQLQQSGPELVKPGTSVKMSCKASGYRFTSYVLHWVRRKPGQGLEWIGYVNPFNDNTRYNEKFKAKATLTSDKSSSTAYMDLVSLTSEDSAVYYCSRGLYDYSYVMDYWGQGTSVTVSS
VL: DIQMTQTTSSLSASLGDGVTITCQASQDIRNYLNWYQQKPDGTIKLLIYHTSKLHSGVPSRFSGGGSGTDFSLTISNLDQEDIATYFCQQSQTLPYTFGGGTKLEIKR
Turning to B2, the binding result in assay [2] is listed as “binds”.

Values taken from patent publication US20250051468A1.
